Measured values from publication PMC7415817.
These are yes or no findings as the source states them, for the method shown. Binding seen in cells or lysates may run through a third protein. Some entries that bind do so weakly or less than the wild type.

Sequences of proteins named here, by UniProt entry; tags and fusion partners are left off.
UniProt Q71F56: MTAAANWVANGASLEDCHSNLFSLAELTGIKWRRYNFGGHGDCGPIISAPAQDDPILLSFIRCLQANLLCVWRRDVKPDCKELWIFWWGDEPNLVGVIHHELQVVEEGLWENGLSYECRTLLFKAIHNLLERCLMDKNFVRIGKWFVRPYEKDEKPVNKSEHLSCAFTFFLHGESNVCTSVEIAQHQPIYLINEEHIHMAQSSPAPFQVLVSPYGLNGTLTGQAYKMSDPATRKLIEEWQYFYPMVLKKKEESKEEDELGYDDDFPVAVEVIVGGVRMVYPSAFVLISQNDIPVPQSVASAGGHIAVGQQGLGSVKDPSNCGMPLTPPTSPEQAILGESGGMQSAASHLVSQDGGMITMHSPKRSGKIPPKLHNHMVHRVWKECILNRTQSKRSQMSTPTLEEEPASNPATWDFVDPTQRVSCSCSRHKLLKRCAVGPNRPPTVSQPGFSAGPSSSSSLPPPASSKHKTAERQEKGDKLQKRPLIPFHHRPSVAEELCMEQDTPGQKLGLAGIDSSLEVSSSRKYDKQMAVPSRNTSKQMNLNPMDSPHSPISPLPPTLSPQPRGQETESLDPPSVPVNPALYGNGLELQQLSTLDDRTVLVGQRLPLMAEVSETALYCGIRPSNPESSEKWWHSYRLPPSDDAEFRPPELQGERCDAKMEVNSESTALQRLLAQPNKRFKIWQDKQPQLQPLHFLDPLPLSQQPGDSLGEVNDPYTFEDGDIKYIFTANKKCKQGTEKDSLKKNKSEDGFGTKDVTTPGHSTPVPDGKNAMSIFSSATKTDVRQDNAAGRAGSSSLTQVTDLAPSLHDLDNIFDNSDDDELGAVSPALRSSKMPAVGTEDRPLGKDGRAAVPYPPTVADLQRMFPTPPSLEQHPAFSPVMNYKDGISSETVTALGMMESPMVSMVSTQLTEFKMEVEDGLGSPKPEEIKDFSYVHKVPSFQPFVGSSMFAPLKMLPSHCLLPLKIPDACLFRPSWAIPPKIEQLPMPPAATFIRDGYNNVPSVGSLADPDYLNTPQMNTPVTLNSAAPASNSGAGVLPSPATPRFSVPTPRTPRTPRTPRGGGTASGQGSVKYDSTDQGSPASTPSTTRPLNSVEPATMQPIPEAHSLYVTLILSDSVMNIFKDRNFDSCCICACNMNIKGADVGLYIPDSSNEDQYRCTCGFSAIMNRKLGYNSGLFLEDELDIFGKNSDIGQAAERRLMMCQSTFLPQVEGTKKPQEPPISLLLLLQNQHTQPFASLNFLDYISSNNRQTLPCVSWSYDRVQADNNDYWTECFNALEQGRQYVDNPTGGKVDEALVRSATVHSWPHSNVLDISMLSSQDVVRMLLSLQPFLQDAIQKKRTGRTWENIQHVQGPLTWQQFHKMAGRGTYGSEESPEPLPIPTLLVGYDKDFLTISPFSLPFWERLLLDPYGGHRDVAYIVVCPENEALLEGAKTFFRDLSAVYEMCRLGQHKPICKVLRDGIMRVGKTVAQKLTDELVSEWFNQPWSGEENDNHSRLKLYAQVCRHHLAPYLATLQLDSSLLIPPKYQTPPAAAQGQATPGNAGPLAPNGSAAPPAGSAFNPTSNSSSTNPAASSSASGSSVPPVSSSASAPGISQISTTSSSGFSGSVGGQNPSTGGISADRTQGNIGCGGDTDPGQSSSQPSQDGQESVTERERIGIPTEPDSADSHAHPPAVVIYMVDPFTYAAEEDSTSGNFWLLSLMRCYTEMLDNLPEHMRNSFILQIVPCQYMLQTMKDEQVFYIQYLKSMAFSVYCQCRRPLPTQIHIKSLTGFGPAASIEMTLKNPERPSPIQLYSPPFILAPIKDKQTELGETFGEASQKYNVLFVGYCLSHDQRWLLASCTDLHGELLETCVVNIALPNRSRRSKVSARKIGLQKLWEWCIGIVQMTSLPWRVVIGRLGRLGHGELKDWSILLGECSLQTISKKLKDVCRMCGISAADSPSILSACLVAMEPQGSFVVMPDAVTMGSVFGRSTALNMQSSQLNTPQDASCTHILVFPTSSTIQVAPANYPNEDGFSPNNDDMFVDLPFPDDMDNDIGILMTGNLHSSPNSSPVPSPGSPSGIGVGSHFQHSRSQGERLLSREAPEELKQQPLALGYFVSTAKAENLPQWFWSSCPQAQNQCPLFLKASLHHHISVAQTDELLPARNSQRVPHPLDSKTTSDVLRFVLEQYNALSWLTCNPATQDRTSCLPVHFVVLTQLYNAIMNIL
UniProt P24863: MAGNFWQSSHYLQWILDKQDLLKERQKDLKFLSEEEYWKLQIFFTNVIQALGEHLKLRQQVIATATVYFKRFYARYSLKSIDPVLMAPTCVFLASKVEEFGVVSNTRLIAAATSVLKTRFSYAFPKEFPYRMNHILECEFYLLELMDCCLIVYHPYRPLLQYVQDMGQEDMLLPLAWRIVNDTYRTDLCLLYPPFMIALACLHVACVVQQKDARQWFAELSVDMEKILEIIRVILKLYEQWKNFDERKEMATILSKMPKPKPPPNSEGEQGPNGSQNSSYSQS
UniProt Q15648: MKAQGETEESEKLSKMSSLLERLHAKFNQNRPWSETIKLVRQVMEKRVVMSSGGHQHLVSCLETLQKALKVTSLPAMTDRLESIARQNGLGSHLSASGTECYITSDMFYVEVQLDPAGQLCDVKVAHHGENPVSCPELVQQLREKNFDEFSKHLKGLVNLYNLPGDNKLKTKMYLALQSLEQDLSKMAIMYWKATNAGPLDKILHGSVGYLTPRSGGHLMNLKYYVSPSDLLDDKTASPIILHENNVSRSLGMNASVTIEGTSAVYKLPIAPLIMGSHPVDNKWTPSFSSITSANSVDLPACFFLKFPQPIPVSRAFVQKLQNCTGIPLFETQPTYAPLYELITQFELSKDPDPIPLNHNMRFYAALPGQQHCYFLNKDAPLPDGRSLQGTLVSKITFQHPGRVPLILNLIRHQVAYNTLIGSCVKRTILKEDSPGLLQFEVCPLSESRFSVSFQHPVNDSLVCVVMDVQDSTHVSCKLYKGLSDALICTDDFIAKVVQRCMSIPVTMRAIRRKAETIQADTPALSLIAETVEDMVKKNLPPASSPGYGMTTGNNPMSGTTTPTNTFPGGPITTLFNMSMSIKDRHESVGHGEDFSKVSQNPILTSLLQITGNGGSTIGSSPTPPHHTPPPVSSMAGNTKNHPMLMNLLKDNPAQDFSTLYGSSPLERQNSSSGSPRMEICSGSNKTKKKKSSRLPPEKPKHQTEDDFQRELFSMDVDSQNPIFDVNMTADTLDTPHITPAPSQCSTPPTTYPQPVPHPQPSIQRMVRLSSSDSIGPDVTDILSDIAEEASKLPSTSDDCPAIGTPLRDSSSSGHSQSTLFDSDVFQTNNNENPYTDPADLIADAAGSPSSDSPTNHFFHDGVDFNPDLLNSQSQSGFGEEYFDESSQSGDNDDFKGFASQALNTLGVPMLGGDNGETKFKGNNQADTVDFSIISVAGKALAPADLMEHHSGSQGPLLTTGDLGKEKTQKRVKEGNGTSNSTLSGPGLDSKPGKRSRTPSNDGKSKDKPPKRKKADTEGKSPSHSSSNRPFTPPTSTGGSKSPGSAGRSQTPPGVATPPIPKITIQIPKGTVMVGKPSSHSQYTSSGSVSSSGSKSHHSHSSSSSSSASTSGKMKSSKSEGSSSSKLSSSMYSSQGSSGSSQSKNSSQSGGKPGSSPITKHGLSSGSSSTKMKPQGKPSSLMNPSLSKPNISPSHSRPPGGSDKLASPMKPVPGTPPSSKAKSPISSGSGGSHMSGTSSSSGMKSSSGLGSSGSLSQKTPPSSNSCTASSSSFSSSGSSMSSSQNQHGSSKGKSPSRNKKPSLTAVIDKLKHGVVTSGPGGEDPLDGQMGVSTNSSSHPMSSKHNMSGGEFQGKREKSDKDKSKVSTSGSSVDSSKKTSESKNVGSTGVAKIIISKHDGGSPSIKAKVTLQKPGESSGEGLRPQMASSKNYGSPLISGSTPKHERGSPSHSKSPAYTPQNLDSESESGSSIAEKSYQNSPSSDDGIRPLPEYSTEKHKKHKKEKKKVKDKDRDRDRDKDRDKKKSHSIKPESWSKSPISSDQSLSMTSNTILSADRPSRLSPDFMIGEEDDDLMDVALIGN
UniProt Q09472: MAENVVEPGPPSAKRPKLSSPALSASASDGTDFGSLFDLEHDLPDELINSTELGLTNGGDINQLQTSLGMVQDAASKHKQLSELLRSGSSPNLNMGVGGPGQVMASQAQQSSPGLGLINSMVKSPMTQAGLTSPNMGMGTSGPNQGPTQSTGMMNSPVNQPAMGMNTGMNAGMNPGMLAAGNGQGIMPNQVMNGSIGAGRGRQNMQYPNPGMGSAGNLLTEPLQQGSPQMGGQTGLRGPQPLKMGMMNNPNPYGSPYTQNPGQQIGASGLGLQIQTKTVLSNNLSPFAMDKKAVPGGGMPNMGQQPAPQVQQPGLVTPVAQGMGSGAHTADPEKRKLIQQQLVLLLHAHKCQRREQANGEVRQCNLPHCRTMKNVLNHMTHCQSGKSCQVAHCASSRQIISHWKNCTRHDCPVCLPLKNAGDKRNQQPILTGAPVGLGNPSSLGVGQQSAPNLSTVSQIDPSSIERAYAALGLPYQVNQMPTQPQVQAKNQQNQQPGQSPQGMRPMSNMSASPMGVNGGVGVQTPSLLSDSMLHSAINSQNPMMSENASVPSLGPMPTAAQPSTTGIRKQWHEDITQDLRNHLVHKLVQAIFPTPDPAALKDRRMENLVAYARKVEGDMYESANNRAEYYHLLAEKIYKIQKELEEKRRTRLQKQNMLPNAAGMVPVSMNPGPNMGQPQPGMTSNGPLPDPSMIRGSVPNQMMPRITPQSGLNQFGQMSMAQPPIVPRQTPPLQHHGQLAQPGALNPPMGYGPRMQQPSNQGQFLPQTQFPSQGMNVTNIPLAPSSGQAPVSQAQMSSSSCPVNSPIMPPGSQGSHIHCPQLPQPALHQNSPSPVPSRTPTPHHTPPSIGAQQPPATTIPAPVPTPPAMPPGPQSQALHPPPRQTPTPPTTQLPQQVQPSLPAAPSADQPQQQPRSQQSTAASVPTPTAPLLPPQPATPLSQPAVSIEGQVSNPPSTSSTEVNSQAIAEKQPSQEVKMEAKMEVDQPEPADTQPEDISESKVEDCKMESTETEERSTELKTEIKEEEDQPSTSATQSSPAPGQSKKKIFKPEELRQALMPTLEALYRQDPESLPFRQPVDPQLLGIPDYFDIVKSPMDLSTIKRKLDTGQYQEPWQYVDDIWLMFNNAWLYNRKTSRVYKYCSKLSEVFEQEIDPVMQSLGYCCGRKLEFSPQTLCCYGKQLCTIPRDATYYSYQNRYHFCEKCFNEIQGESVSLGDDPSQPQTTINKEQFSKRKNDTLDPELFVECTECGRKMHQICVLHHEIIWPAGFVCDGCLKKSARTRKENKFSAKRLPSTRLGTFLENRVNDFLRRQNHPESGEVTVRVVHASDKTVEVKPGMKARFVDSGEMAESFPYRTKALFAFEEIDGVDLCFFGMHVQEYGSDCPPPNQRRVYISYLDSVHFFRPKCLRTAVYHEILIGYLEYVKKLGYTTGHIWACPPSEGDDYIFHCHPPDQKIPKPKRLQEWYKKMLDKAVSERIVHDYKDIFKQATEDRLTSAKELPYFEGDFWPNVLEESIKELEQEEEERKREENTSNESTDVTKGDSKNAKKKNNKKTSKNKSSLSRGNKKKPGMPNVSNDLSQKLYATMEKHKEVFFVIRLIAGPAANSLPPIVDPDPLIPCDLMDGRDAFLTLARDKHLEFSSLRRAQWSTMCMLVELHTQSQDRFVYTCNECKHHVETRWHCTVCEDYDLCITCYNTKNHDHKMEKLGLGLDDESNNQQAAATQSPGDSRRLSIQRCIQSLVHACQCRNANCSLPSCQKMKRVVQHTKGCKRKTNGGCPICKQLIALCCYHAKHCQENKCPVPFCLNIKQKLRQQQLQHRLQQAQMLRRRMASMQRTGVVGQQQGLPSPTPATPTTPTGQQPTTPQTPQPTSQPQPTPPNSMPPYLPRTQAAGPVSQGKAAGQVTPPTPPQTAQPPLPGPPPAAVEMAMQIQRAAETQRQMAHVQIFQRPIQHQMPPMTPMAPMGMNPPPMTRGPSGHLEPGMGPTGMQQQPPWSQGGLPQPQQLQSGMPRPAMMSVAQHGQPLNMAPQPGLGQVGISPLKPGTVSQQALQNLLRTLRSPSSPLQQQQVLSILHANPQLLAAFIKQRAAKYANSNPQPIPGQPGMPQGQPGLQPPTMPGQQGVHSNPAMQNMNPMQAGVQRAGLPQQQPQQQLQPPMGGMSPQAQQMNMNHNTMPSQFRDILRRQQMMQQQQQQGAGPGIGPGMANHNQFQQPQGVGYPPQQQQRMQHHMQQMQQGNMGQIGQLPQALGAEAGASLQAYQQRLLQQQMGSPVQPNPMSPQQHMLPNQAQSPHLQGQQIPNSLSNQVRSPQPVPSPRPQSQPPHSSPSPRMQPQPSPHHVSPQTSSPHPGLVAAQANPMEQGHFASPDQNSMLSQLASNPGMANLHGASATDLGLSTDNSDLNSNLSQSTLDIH

Columns and labels:
Assay in all cases: co-IP; endogenous proteins in lysates of PC9 and A549 cells (20 mmol/L Tris-HCl pH 8.0, 10 mmol/L NaCl, 1 mmol/L EDTA, 0.5% NP-40); antibody or control IgG overnight at 4 °C, Protein G Dynabeads, Western blot; cells with or without silencing of MED13L
[1] = biological target: MED12 (human (endogenous in PC9 and A549)) (UniProt Q93074)
[2] = biological target: T1, MED23 (human (endogenous in PC9 and A549)) (UniProt Q9ULK4)
T1 sequence: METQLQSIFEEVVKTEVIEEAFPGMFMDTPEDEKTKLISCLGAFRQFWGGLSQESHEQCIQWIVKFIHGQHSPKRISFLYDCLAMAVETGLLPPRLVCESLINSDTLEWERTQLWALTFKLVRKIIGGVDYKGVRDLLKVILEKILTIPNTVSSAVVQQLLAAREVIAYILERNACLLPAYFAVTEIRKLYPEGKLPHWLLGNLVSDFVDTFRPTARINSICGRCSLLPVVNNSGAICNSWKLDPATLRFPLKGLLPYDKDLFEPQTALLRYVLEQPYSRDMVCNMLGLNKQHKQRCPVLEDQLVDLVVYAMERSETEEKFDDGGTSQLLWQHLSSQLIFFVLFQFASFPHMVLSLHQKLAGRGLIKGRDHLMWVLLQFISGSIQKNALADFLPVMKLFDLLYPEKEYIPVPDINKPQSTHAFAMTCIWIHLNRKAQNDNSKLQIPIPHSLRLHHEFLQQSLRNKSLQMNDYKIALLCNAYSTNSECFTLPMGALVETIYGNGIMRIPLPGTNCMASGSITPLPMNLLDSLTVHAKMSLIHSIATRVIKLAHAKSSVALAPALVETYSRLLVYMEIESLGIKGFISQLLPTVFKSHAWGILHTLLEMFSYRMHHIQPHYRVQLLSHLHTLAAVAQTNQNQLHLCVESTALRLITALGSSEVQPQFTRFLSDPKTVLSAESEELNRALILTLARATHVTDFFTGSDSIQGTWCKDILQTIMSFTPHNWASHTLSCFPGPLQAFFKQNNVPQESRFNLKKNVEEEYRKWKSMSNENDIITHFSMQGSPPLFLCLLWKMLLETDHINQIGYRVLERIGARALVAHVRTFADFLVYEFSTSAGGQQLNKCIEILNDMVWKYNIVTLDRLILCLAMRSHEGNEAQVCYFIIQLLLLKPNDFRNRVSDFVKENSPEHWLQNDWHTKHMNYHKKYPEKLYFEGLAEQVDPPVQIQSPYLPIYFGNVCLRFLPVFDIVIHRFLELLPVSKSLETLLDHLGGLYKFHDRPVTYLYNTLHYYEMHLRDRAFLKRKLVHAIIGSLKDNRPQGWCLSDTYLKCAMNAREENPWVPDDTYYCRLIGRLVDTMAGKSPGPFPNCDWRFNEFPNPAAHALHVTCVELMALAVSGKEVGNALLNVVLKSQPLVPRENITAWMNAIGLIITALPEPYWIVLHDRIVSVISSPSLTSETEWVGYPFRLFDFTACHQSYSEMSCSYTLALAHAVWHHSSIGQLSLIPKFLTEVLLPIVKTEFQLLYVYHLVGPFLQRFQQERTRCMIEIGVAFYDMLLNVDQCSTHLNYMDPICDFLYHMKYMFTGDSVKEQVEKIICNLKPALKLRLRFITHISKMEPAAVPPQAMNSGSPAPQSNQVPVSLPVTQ

[3] = biological target: MED13L (human (endogenous in PC9 and A549)) (UniProt Q71F56)

| binding [1] | binding [2] | binding [3] | Substance |
| --- | --- | --- | --- |
| binds |  |  | CCNC (from UniProt P24863 1-283) |
|  | binds |  | MED1 (from UniProt Q15648 1-1581) |
| binds |  | binds | acetyltransferase P300 (from UniProt Q09472 1-2414) |
